Measured values reported in patent US20220204633A1 (UNIVERSIT T Z RICH, published 2022).
No constants are given. Whether binding was seen depends on the method and setting. Some binding calls cover weakened binding; strength is not graded here.

Protein sequences, listed by entry. Tags and fused reporters are not part of them. Residues count along the entry.
UniProt P19909, residues 303-497: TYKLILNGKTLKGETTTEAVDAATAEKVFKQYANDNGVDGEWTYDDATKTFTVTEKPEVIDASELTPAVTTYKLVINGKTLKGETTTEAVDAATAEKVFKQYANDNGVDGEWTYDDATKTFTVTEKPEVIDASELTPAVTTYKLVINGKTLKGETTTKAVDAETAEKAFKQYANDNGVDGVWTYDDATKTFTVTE

Target: Protein G (protein G sepharose chromatography bead, Biovision) (UniProt P19909)
Experiment: Protein G affinity chromatography

B1: human IL-12Fc NHQ (Fc fusion)
chain: IWELKKDVYVVELDWYPDAPGEMVVLTCDTPEEDGITWTLDQSSEVLGSGKTLTIQVKEFGDAGQYTCHKGGEVLSHSLLLLHKKEDGIWSTDILKDQKEPKNKTFLRCEAKNYSGRFTCWWLTTISTDLTFSVKSSRGSSDPQGVTCGAATLSAERVRGDNKEYEYSVECQEDSACPAAEESLPIEVMVDAVHKLKYENYTSSFFIRDIIKPDPPKNLQLKPLKNSRQVEVSWEYPDTWSTPHSYFSLTFCVQVQGKSKREKKDRVFTDKTSATVICRKNASISVRAQDRYYSSSWSEWASVPCSGGGGSGGGGSGGGGSRNLPVATPDPGMFPCLHHSQNLLRAVSNMLQKARQTLEFYPCTSEEIDHEDITKDKTSTVEACLPLELTKNESCLNSRETSFITNGSCLASRKTSFMMALCLSSIYEDLKMYQVEFKTMNAKLLMDPKRQIFLDQNMLAVIDELMQALNFNSETVPQKSSLEEPDFYKTKIKLCILLHAFRIRAVTIDRVMSYLNASKVDKRVESKYGPPCPPCPAPEFLGGPSVFLFPPKPKDTLMNSRTPEVTCVVVDVSQEDPEVQFNWYVDGVEVHNAKTKPREEQFNSTYRVVSVLTVLHQDWLNGKEYKCKVSNKGLPSSIEKTISKAKGQPREPQVYTLPPSPEEMTKNQVSLTCLVKGFYPSDIAVEWESNGQPENNYKTTPPVLDSDGSFFLYSRLTVDKSRWQEGNVFSCSVMHEALHNQYTQKSLSLSLGK
notes: also called NHQ variant
binding: binds
